Test results: PubChem BioAssay AID493014 (National Center for Advancing Translational Sciences (NCATS), 2011)
The list shows a part of the results. The main result of the screen is listed elsewhere. These columns were measured beside it and carry no call. Compounds called inactive in the main read-out are mostly missing here. Potencies come from curve fits of mixed quality, noted in brackets.

Test: qHTS Assay to Find Inhibitors of Chronic Active B-Cell Receptor Signaling
Details: ABC-DLBCL IkBa-CBG/CBR reporter, luminescence ratio (green luciferase fused to IkBa over red control in TMD8 lymphoma cells), 4 h
Summary of the method: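 Compounds up to 46 uM were incubated four hours with TMD8 cells whose green CBG68 luciferase is fused to IkappaBalpha; red CBR luminescence normalised the signal, and concentration-effect curves were fitted to fusion, red and ratio data.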

[1] = measured here: CBR red luminescence, cell number
[2] = measured here: IkBa-CBG green luminescence

| Structure (SMILES) | AC50 [1] | AC50 [2] |
| --- | --- | --- |
| COc1ccc(S(=O)(=O)Nc2cccc(C)n2)c2ccccc12 | 8.2 µM [rising, partial curve] |  |
| COc1ccc(-c2noc(CCCC(=O)O)n2)cc1 | 29.1 µM [falling, single point] | 0.184 µM [rising, full curve, poor fit] |
| COC(=O)c1ccccc1NC(=S)NC(=O)c1ccc2c(c1)OCO2 | 1.78 µM [falling, full curve] |  |
| Cc1c(C(=O)NCC2CCCO2)oc2ccc(S(=O)(=O)N3CCCC3)cc12 (stereo not given) | 9.2 µM [rising, partial curve] |  |
| C/C(CC(=O)Nc1cc(C)ccn1)=N\NC(=O)c1cccc(C)c1O | 22.4 µM [falling, single point] |  |
| O=C(CCNC(=O)c1ccc(Br)cc1)NCC1COc2ccccc2O1 (stereo not given) | 5.01 µM [rising, single point] |  |
| Cc1csc(NC(=O)CSc2nc(C(C)C)nc3ccccc23)n1 | 0.282 µM [falling, full curve, poor fit] |  |
| Cc1cc2c(Nc3cccc(O)c3)ncnc2s1 | 35.5 µM [falling, single point] |  |
| CCOCc1c(C(=O)N2CCN(CC(=O)Nc3ccc(F)cc3)CC2)oc2ccccc12 | 4.61 µM [falling, full curve, poor fit] |  |
| COCc1cc(=O)n2[nH]c(-c3cccc(Br)c3)cc2n1 | 8.2 µM [falling, partial curve, poor fit] |  |
| Nc1nc(SCc2nc3scc(-c4ccccc4)c3c(=O)[nH]2)n[nH]1 | 16.4 µM [rising, single point] |  |
| Cc1ccc(C(=O)N/C(=C\c2ccc(-c3ccccc3[N+](=O)[O-])o2)C(=O)NCCN(C)C)cc1 | 7.08 µM [falling, partial curve, poor fit] |  |
| Cn1nc(-c2ccccc2)c(CSc2ccccc2)c1Cl | 16.4 µM [rising, partial curve] |  |
| CCCCCCN(C(=O)CCCCCN1C(=O)NC(c2ccccc2)C(C(=O)OCc2ccccc2)=C1C)C(C(=O)NCCCC)c1ccc(OCC(=O)OC)c(C(=O)OC)c1 (stereo not given) | 35.5 µM [falling, single point] |  |
| CCOC(=O)N1CCC(NC(=O)CSCc2cnn(-c3ccccc3)c2-n2cccc2)CC1 | 12.6 µM [falling, partial curve, poor fit] |  |
| C#CCOc1ccc(/C=C2/C(=O)ON=C2C)cc1OCC | 3.55 µM [falling, single point] |  |
| Cc1ccc(S(=O)(=O)CC(CN2CCCCC2)N2CCCCC2)cc1 (stereo not given) |  | 11.2 µM [rising, partial curve, poor fit] |
| O=C(/C=C/c1cn(-c2ccccc2)nc1-c1cccnc1)c1ccco1 | 8.91 µM [falling, partial curve] |  |
| Cc1onc(-c2ccccc2)c1C(=O)NNC(=O)c1ccccc1O | 32.6 µM [falling, single point] |  |
| Cc1ccc(OCC(=O)Nc2ccc3c(c2)CCC3)c([N+](=O)[O-])n1 | 7.94 µM [rising, partial curve, poor fit] |  |
| CCOC(=O)[C@H]1[C@H]2COc3ccc(C)cc3[C@@H]2N2C(=O)c3ccccc3NC(=O)[C@@]12C | 29.1 µM [falling, single point] |  |

| Structure (SMILES) | AC50 [1] | AC50 [2] |
| --- | --- | --- |
| Cc1noc(C)c1C(=O)OCC(=O)Nc1cc(S(=O)(=O)N2CCOCC2)ccc1Cl | 8.91 µM [falling, partial curve] |  |
| CCC(=O)Nc1nc(-c2ccccc2)ns1 | 23.1 µM [falling, single point] | 4.61 µM [rising, full curve, poor fit] |
| C=CCn1c(COc2ccc(F)cc2)nnc1SCC(=O)Nc1cccc(S(N)(=O)=O)c1 | 31.6 µM [falling, single point] |  |
| CNC(=O)[C@H]1O[C@@H](n2cnc3c(NCc4cccc(I)c4)ncnc32)[C@H](O)[C@@H]1O | 9.2 µM [rising, partial curve] | 7.31 µM [falling, partial curve] |
| COc1ccc(NC(=O)CSc2nc(=O)n(CCN3CCOCC3)c3c2CCC3)c(OC)c1 | 29.1 µM [falling, single point] |  |
| O=C(Cc1cccs1)Nc1nc2ccccc2s1 | 11.2 µM [falling, single point] |  |
| O=S1(=O)[C@H]2C[C@@H]3C=C[C@@]2(CN1Cc1ccc(Cl)cc1)O3 | 25.1 µM [falling, single point] |  |
| CCCN1CCC(=NNC(=O)CSc2cc(C)c(Br)cc2C)CC1 | 0.82 µM [falling, full curve, poor fit] |  |
| COc1cc(/C=N/Nc2nc3c(c(=O)n(C)c(=O)n3C)n2Cc2ccccc2)ccc1OC(=O)c1ccco1 | 9.2 µM [falling, partial curve, poor fit] |  |
| C/C=C/C(=O)N(CC)c1ccccc1C | 10 µM [rising, partial curve, poor fit] |  |
| COc1ccc(-c2nc3ccccc3c(=O)n2CCOc2ccc(C)cc2C)cc1 | 1.3 µM [rising, full curve] |  |
| O=C(/C=C/c1ccco1)Nc1cccc(C(=O)Nc2ccccc2C(=O)O)c1 | 4.47 µM [falling, partial curve] |  |
| c1ccc(CCc2nc(-c3ccccn3)no2)cc1 | 18.4 µM [falling, partial curve] |  |
| CS(=O)(=O)c1ccc2nc(NC(=O)Nc3cccc(Cl)c3)sc2c1 | 3.98 µM [rising, partial curve, poor fit] |  |
| COc1ccc(CNCCC(c2ccc(F)cc2)c2ccc(OC(C)C)cc2)cc1OC (stereo not given) | 15.8 µM [falling, single point] |  |
| NNC(=O)COc1ccc(-c2n[nH]c(C(F)(F)F)c2-c2ccc(Br)cc2)c(O)c1 | 5.17 µM [falling, full curve] | 5.17 µM [rising, full curve, poor fit] |
| COc1ccccc1CNC(=O)CCc1c(C)nc2cc(-c3ccccc3OC)nn2c1C | 0.251 µM [falling, full curve, poor fit] |  |
| O=C(NS(=O)(=O)c1ccccc1)c1ccccc1 | 0.731 µM [rising, full curve, poor fit] |  |
| Cc1ccc(SCc2ccc(C(=O)Nc3nccs3)o2)cc1 | 8.91 µM [falling, partial curve, poor fit] |  |
| CCOC(=O)C1(Cc2ccc(Cl)cc2)CCN(C(C)Cc2ccc(O)c(OC)c2)CC1 (stereo not given) | 15.8 µM [falling, partial curve] |  |
| Cc1ccc(Nc2nnc(SCC(=O)Nc3cccc(S(=O)(=O)NC4=NCCCCC4)c3)s2)cc1 | 11.6 µM [falling, partial curve, poor fit] |  |

Sorted by length of the SMILES (descending): 4 of the compounds above.

| Structure (SMILES) | AC50 [1] | AC50 [2] |
| --- | --- | --- |
| O=S1(=O)[C@H]2C[C@@H]3C=C[C@@]2(CN1Cc1ccc(Cl)cc1)O3 | 25.1 µM [falling, single point] |  |
| COc1ccccc1CNC(=O)CCc1c(C)nc2cc(-c3ccccc3OC)nn2c1C | 0.251 µM [falling, full curve, poor fit] |  |
| CS(=O)(=O)c1ccc2nc(NC(=O)Nc3cccc(Cl)c3)sc2c1 | 3.98 µM [rising, partial curve, poor fit] |  |
| C/C=C/C(=O)N(CC)c1ccccc1C | 10 µM [rising, partial curve, poor fit] |  |

(further entries)

| Structure (SMILES) | AC50 [1] | AC50 [2] |
| --- | --- | --- |
| COc1ccc2oc(C)c(C(=O)c3ccc([N+](=O)[O-])cc3)c2c1 | 0.651 µM [rising, partial curve, poor fit] |  |
| COc1c(C)cc(C(=O)C2CCCN(Cc3ccc(Oc4ncccn4)cc3)C2)cc1C (stereo not given) | 2.24 µM [rising, partial curve] |  |
| CCOc1ccc(CCNC(=O)CS(=O)Cc2nc(-c3ccc(C)cc3)oc2C)cc1OCC (stereo not given) | 0.891 µM [rising, full curve, poor fit] |  |
| O=C(Cn1cnc2c(OCc3ccccc3)ncnc21)NCc1nc2ccccc2[nH]1 | 7.31 µM [rising, partial curve, poor fit] |  |
| CC(C)(C)N(Cc1ccccc1)C(=O)COC(=O)c1cccc([N+](=O)[O-])c1 | 8.91 µM [rising, partial curve, poor fit] |  |
| CC1CCN(C(=O)CN2C(=O)C(=O)N(C)C2=O)c2ccccc2S1 (stereo not given) | 18.4 µM [rising, single point] |  |
| COC(=O)CNC(c1ccccc1)c1cc(Br)ccc1NC(=O)OCc1ccccc1 (stereo not given) | 31.6 µM [falling, partial curve, poor fit] |  |
| CNC(=O)c1ccsc1NC(=O)c1coc2ccccc2c1=O | 4.47 µM [rising, partial curve, poor fit] |  |
| COC(=O)C(NC(C)=O)(Nc1cccc(C)n1)C(F)(F)F (stereo not given) | 7.94 µM [rising, partial curve, poor fit] |  |
| COC(=O)c1cnn2c(C)c(Cc3cccc(F)c3)c(C)nc12 | 1.64 µM [falling, partial curve] |  |
| Clc1ccc(-c2csc(-c3cccnc3)n2)s1 | 1.58 µM [rising, full curve, poor fit] |  |
| Cc1ccc2c(c1C)OC(=O)CC2c1ccccc1 (stereo not given) | 2.51 µM [rising, full curve, poor fit] |  |
| Cc1cc(C)cc(NC(=O)C2CCC(CNC(=O)[C@@H]3Cc4ccccc4CN3)CC2)c1 (stereo not given in full) | 10 µM [falling, partial curve, poor fit] |  |
| COc1ccc2cc(C(=O)NCCc3ccccc3)[nH]c2c1 | 3.98 µM [rising, partial curve, poor fit] |  |
| CSc1nccc(Nc2ccccc2)c1C#N | 17.8 µM [rising, partial curve, poor fit] |  |
| CCc1ccc(NC(=O)COC(=O)c2cccs2)cc1 | 11.2 µM [rising, partial curve, poor fit] |  |
| CN(C)c1ncc(S(=O)(=O)c2ccccc2)c(-c2ccccc2Cl)n1 | 6.31 µM [rising, full curve] |  |
| O=C(OCc1ccccc1C(F)(F)F)c1cc([N+](=O)[O-])ccc1N1CCOCC1 | 1.41 µM [rising, partial curve, poor fit] |  |
| O=C(OCc1nnc(-c2ccccc2)o1)c1cc(=O)c2ccccc2o1 | 22.4 µM [falling, single point] |  |
